The values below come from paper PMC6503114 (Frontiers in Cellular and Infection Microbiology, 2019).

A short description of the data set: peptide made by a vendor (Fmoc solid-phase peptide synthesis). Conditions: whole synthesis, reverse phase analytical chromatography on DeltaPak 5 μm C18 100A (3.9 × 150 mm) column.

For the substance Protegrin 1, the “purity (crude or final not stated)” value was 99%.
